Reference: patent US5273879, “Amplification method for polynucleotide assays” (Syntex (U.S.A.) Inc.)

System: DraI restriction endonuclease
Experiment: enzyme reaction in vitro
Conditions: cleaves extended duplex at 37 C; no bands without DraI; purified native protein

GTAAAACGACGGCCAGTGAATTC [23 base primer on M13mp19 Dra I clone]
activity on this sequence: active

For at least one entry, the source does not settle the construct or the ends of the probe.
